Laboratory results as given in article doi:10.1101/2023.12.13.571423.

Biological target: AtURI fused to the GAL4 DNA binding domain (Arabidopsis thaliana)
Test: two-hybrid

B1: PFD6 fused to the Gal4 activation domain (protein, UniProt Q2HIK4 1-129)
chain: MSSSTVRDLQRDLENKANDLGKIQKDIGKNHQLRKKYTIQLGENELVLKELDLLEEDANVYKLIGPVLVKQDLAEANANVRKRIEYISAELKRLDAILQDMEEKQNNKRETIMKLQQRLQTIQAGKAKA
binding: binds

Results are given in words; binding and its absence hold for the method and conditions named. Binding can be weak; no strength is given. Tags and fused reporters may be left off the sequences shown.
